According to patent publication US20090068290A1, “BIFEPRUNOX DOSES FOR TREATING SCHIZOPHRENIA” (priority 2006, published 2009):
For some of these results: At least one compound was matched to its structure with a doubt left. Some results were stated once for a whole list of compounds, not compound by compound.

How the values were obtained:
[1] = tested on: adult subjects with schizophrenia; assay: Adverse events (TEAE, SAE, discontinuation, EPS-related TEAE, anticholinergic use), Clinical Study One; assay type: in vivo, human
Procedure: METHODOLOGY: This was a randomized, double-blind, fixed-dose, placebo-controlled, risperidone-referenced, parallel group, multi-center study in adult subjects with schizophrenia. There were five treatment groups in this study. […] Study medication was administered once daily. After Baseline measurements were performed, the titration phase was begun. Bifeprunox treated subjects were titrated up to 5 mg, 10 mg or 20 mg according to a standardized titration schedule (Day 1: 0.125 mg, Day 2: 0.25 mg, Day 3: 0.5 mg, Day 4: 1.0 mg, Day 5: 2.0 mg, Day 6: 5.0 mg, Day 7: 10.0 mg, Day 8: 20 mg).

[2] = tested on: adult subjects with schizophrenia; assay: PANSS total score, Clinical Study Three (6-week, olanzapine-referenced); assay type: in vivo, human; details: olanzapine 15 mg
Procedure: There were four treatment arms in this study, approximately 144 subjects per arm. […] After completing the Single-Blind Placebo Lead-in Period of at least three days, bifeprunox-treated subjects were titrated from 0.25 mg up to 20 mg/day or 30 mg/day according to a standardized titration scheme over a seven- or eight-day period, respectively. When the assigned dose was reached, subjects were maintained at that dose for the remainder of the six week treatment period. […] Subjects were hospitalized (if not already inpatients) after eligibility for study entry was verified, starting from the Screening Visit until at least 10 days after Baseline. Subjects could be hospitalized longer than 10 days if considered medically necessary by the Investigator. Rating scale assessments for efficacy and abnormal movement disorders were done weekly except for Week 5. Safety assessments were performed at Screening, during treatment and at the end of the study. Subject satisfaction with study medication was assessed at Week 6. Samples of whole blood were obtained at Weeks 2, 4, and 6 for determination of bifeprunox in plasma.
Test Product, Dose and Mode of Administration: Bifeprunox tablets, total daily dose 20 mg or 30 mg (one 20 mg tablet and one 10 mg tablet) administered orally using a once daily dosing regimen.

## O=c1[nH]c2cccc(N3CCN(Cc4cccc(-c5ccccc5)c4)CC3)c2o1 [Bifeprunox, 7-[4-([1,1′-biphenyl]-3-ylmethyl)-1-piperazinyl]-2(3H)-benzoxazolone]
[1]; bifeprunox 10 mg
  serious adverse event of suicidal ideation: < 1%
  suicide attempt: < 1%

## Cc1cc2c(s1)Nc1ccccc1N=C2N1CCN(C)CC1 [Olanzapine, olanzapine, reference compound]
[2]
  difference of the PANSS total score from placebo (sensitivity analyses): notably different from placebo

## Cc1nc2n(c(=O)c1CCN1CCC(c3noc4cc(F)ccc34)CC1)CCCC2 [Risperidone, risperidone, reference compound]
[1]; risperidone 6 mg
  serious adverse event of suicidal ideation: < 1%
